Reference: the supplement of paper PMC5949888
Most values lie at the floor of the assay. Slopes are relative: functional sequences can read slightly below zero.

These substances were tested on Saccharomyces cerevisiae PS128 hsf1 delta, HSF1(1-493) fusion (assay: growth estimate (transactivation domain function in HSF1 fusion, heat-shock survival) (a.u. (slope of normalised read count over time)); higher = stronger growth at 37°C, i.e. more transactivation activity). Settings: library: random library.
Protocol: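 Random 60-nt DNA library encoding peptides of up to 20 aa, fused to the C-terminus of yeast HSF1 residues 1-493 (C-terminal TAD deleted) and expressed from the native HSF1 promoter on a CEN plasmid in hsf1-deleted S. cerevisiae PS128. Cells were selected at 37°C on -trp 5-FOA plates for 0, 2, 4, 6 and 8 days and amplicons were sequenced. Growth estimate is the slope of a robust linear fit of total-sum-normalised read counts (normalised to the first time point) over time, using at least 2 replicates. Sequences are classed functional (TAD activity) above a threshold of -0.13, set from stop-codon control sequences.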

Substance	growth estimate
EACIDSTGRGRT	< -0.25
VGCRFRGTNA	< -0.25
FACLP	< -0.25
PGWVVQRGFMDRLLAMPGRD	< -0.25
RNDLSIRVVTTKGRQGS	< -0.25
DIQPCHQVGYHTLAVHGKAP	< -0.25
RLVQPARD	< -0.25
SRKLLSYQGPCFEALLSSAV	< -0.25
SKSEGCARRDSRV	< -0.25
GWS	< -0.25
GVPT	< -0.25
KTWH	< -0.25
SVAEIGLEGGAPQLM	< -0.25
NMRGWSLHGDEVKNGSSVMV	< -0.25
NGIEVSASPLQGCAVVQPLG	< -0.25
RVDSSTEARSVYRLSLANTF	< -0.25
GRAATGLITKVNKVSVLS	< -0.25
GNDLQLAIVDLSWSSLLGKN	-0.243
FVRSSNTRLIRGRLTSCPPP	< -0.25
RVRPRDHGGIRHLDLRNART	< -0.25
RCV	< -0.25
LAEVPQNVAE	< -0.25
GRRLNRRSSVELYKRAVK	< -0.25
CRLRVV	< -0.25

Part of the list above in another layout:
RLVQPARD
  growth estimate: < -0.25
GWS
  growth estimate: < -0.25
RVRPRDHGGIRHLDLRNART
  growth estimate: < -0.25
GRRLNRRSSVELYKRAVK
  growth estimate: < -0.25

(list continues)

Substance	growth estimate
EDQRVSEPQLIGGLTT	< -0.25
GRVERAVNCLVCTATNARYR	< -0.25
RIHTFRFSDGAGDFRVVA	< -0.25
SAWLEDFGRCFTQSA	< -0.25
LQRPPRILDNSESVVLERRS	< -0.25
STSNDNLNKVPRV	-0.231
ARSV	< -0.25
ILGSYVHVGLTEALA	< -0.25
VVQWFRHVTAPGYRSLLQAG	< -0.25
RSPGKSTRL	< -0.25
STIHSLVLINLLSTPGTA	< -0.25
ILLDTLARTSMRPLEVI	< -0.25
FRRSRQCARYNLFQNNRRCP	0.436
HVLELTSYEELLQRTLCMCT	< -0.25
WTPALRSCRANCKGCGHLHR	< -0.25
GPHLSGRRTSRSA	< -0.25
LTSSQVSGE	< -0.25
EMIVSYEGLVSATLSPVAVY	-0.248
RGSPKHATQWSMRVRTGGPA	-0.243
PSVRQNQTQCSTLVLVSIPE	< -0.25
RSESSPYLWRLTCRTGPVLL	< -0.25
TDGYIQ	< -0.25
WNDPTDLDVLLTGVATLLIA	< -0.25
EVLCGRCRTYRRDVKLLFSI	< -0.25

Substance	growth estimate
EGGISMRGSLFYARDVCVSS	< -0.25
WHTCVA	< -0.25
VWLHWRPPETLGIGLV	< -0.25
RWW	< -0.25
SGRTDFAELHVLPIKAPRKL	< -0.25
GNRPAPGIRAPRFMCIHVPS	< -0.25
KFLLRTGIQRTMQCYHLYVE	< -0.25
CYASSTFNKQQVLRLPTGA	< -0.25
YGVCHSNPRRLRRGVRGHRL	< -0.25
NPLLAAVSRVQYWLVATQGR	< -0.25
ERRAITTFICG	< -0.25
LADWCWNV	< -0.25
YRPACRDYAKRLRRLIRHKF	< -0.25
PSDMRL	< -0.25
NVSWSLVKRGRHGQRC	< -0.25
LDSLKMAIQ	< -0.25
TESPRRSYASPEREVLSDSV	< -0.25
ASRNIR	< -0.25
AFSPKTCQAGERRM	< -0.25
VGFFPIDEFMPNCAIIYCRP	< -0.25
YYM	< -0.25
GRVNVSTCIAPYLNRPG	-0.246
TFD	< -0.25
HGVTNTVAPAFSPKTLLVSP	< -0.25

Substance	growth estimate
TTDAYCLQALGLVGDEWLAN	< -0.25
GRSPVLRTLYA	< -0.25
CTRRGTNQVGGRVPGPAGGL	< -0.25
RHPCRTLR	< -0.25
GRGRKRHSFTSTLDRCSLVL	< -0.25
LAGHCTACVGRS	< -0.25
YSSAAHNYRLGFVVLAGRHD	< -0.25
LIWNSN	< -0.25
PAARNMRRTTPACAGWDPPG	< -0.25
EREFERTGMRPARNLILALQ	< -0.25
CCESAQLFGLGGGSFD	< -0.25
AASLVTTRERSCGAKRGKQG	< -0.25
KDYCTSSRNPGWVYCGETLT	< -0.25
RVSLFFTLFALNSEWDCFRL	< -0.25
IAGGNIFN	< -0.25
IMGISNRFVV	-0.231
TRNNSPSLTVLFARRHSLEV	< -0.25
LICTLRIVYQCRKSGNDRSV	< -0.25
PRSRRACTRYVSSLRIQAFS	< -0.25
RITT	< -0.25
TDNCIHQFEYHSLSCCHWAG	< -0.25
VRTVGTG	< -0.25
IAYIWKFGATAMGLPGAFYH	< -0.25
RPRPRCASVPLWLVAGSHMR	< -0.25

Substance	growth estimate
LGNELAITLTEHCH	< -0.25
LAGPLMGSIAANRFMQGTKQ	< -0.25
AYSRSYKGHLVTLARGVKQQ	< -0.25
INVVDEGRPRYPACQ	< -0.25
LGNHRGTGVIGRQGCRHAHV	< -0.25
IRRKDSIPTGGSDQHGPPRK	< -0.25
KLAACAHRLRLVIGWSEQRG	< -0.25
AAARGIDYDQTMETARFNLF	2.25
RRRPSTSRRGGARASYADGP	< -0.25
SHT	< -0.25
SVRFTRMTGYKRYSSRVSRA	< -0.25
AERVHVFSRRTRLSG	< -0.25
GGGHRPSCEGAPYLA	< -0.25
TTTF	< -0.25
FANAFP	< -0.25
SSCPKGNGDSIGMSPPNVGA	< -0.25
AARAKCG	< -0.25
RSIMGCNIRPNSY	< -0.25
SEVSIPISNQLCRRTRQNAG	< -0.25
NKGLHIGDQHTSVARAGWET	-0.155
KPGR	< -0.25
EMDHRSVAAVAGVSPEFWWR	-0.231
FRRMDYMLNGKLRQDVACEQ	< -0.25
VVTWEPH	-0.127

Given comma-delimited: part of the list above.
Substance,growth estimate
AARAKCG,< -0.25
RSIMGCNIRPNSY,< -0.25
SEVSIPISNQLCRRTRQNAG,< -0.25
NKGLHIGDQHTSVARAGWET,-0.155
KPGR,< -0.25

(further entries)

Substance	growth estimate
SRVHMPFFLSTVAYWI	< -0.25
GESRDTCQWCQIRFSYRVAA	< -0.25
HGPGRLS	< -0.25
TDPWIQELRFFR	-0.201
KEETWRAASSFKLSHHRNDP	< -0.25
DLRFRHNRKSSQPRPV	< -0.25
VHWENLPGTGSKPCQSERER	< -0.25
VGPGDEAQLALNQRREVRWL	< -0.25
GCRSAWPGIQLTCSSSRKIE	< -0.25
LGSGYFLTPGCTALVARYRG	< -0.25
TLLFSYPGSILPGCACQLVG	< -0.25
VPSSRVQ	< -0.25
GRALVSETEERLSKWEIFQR	< -0.25
FHRHLIKKFYR	< -0.25
ATRTYT	< -0.25
VRLARLSARVQSSPALNLAS	< -0.25
CLGQARQDYGTVRMCRGQRS	< -0.25
VGPRDHIAWRGIWRQLTQCG	< -0.25
VGRGRT	< -0.25
AGSGPYAKCTRAASRIRASL	< -0.25
LGFVY	< -0.25
SLARSYAHGRTKSCLSAEIC	-0.229
EWADTPASYRRWGVF	< -0.25
SRACRVRVGALLWWFYAPPI	< -0.25

Substance	growth estimate
DSLRRAVQRQR	-0.243
VPFQRVSLVVPSAGRRAGVT	< -0.25
MIYS	< -0.25
RDVELRGGILPRWHSYEAIW	< -0.25
TRRRTNYALVEHPLHRRNRL	< -0.25
YAGFLICSFSRLSLYGWASS	< -0.25
ILSA	< -0.25
GYDHWVIGGGIYQFALRKPA	< -0.25
GIFHHRALGFLGTTNLEGES	< -0.25
RSECPLS	< -0.25
GAIIEEEG	< -0.25
QISDNKYVEVPR	< -0.25
SQI	-0.246
EHTPSSASLVAVLAGFPQAA	< -0.25
LHPSKQTEQLRIQPSGLNQS	< -0.25
NPVTK	< -0.25
HRIRGGALLLNARKVH	< -0.25
FQTGYSKYHDLSSPTFWCTG	< -0.25
GEHQLHVVAPVRGPFLCLTG	< -0.25
VMSGRGLVM	< -0.25
IERYTVLTGPLHRQQVNS	< -0.25
HSRSAHYLDRMRRGVRPG	< -0.25
YGSWHDLSHFRAWAFGLMVT	< -0.25
GYRSR	< -0.25

Already shown: an excerpt of the list.
Substance	growth estimate
MIYS	< -0.25
RDVELRGGILPRWHSYEAIW	< -0.25
TRRRTNYALVEHPLHRRNRL	< -0.25

Additional records.

Substance	growth estimate
AKPKIYSMAS	< -0.25
RVASGRREKLLANKRIIGP	< -0.25
RNSPIIRFGLAVSTRRTKVH	< -0.25
VPTHRRINSLGQSIARLRTR	< -0.25
QEDGWLRVPGTRDAT	< -0.25
IQDS	< -0.25
GKEVRRAVGGDTRHIAHPRM	< -0.25
TIYNHGGTH	< -0.25
RQVQTSQECKAIACFM	< -0.25
FTN	< -0.25
PSRGSRFGGRFETPGWDTLC	< -0.25
HYLTALLRRSSGIFKSPSRL	< -0.25
QTHDPVCS	< -0.25
HLENVIITVHV	-0.246
WYRPRG	< -0.25
KSELKYYSVRKASPEIGHPG	< -0.25
LYVGSAESGSWM	< -0.25
TMWTVYRDRIAQSGTSVAAI	< -0.25
MPLSYQSWEATGAVRLRGII	< -0.25
VLSRARYESVFFTAPSRRSS	< -0.25
